Drawing on publication PMC9516196, this text covers binding for one substance.

Results are given in words; binding and its absence hold for the method and conditions named. A result given as binding can be weak or reduced; the word gives no strength. Tags and fused reporters may be left off the sequences shown.

For the assay, the target named is T1, ORYZA SATIVA HOMEOBOX 15 (OSH15), yeast two-hybrid fusion (rice (Oryza sativa)) (UniProt O80416).
T1 sequence: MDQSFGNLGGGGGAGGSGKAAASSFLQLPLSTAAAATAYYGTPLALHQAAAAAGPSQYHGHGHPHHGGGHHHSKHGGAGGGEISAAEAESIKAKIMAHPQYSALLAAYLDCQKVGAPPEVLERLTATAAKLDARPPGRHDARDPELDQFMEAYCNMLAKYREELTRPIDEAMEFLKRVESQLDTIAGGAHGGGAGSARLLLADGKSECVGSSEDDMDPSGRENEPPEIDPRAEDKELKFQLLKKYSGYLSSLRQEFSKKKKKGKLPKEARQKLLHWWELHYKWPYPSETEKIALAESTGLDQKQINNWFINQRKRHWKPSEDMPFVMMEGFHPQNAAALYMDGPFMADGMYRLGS
In words: two-hybrid; Golden Yeast System (Takara); yeast growing on SD/His–Ade–Leu–Trp– plates within 1 week counted as positive.

Regarding “C-terminus of DLT (containing a GRAS domain), yeast two-hybrid fusion (rice (Oryza sativa)) (domain or fragment)”, the binding result is reported as “binds”.
